No constants are given. Whether binding was seen depends on the method and setting. Some entries that bind do so weakly or less than the wild type.
Molecular target: GST-partial Synoviolin fusion protein (human) (UniProt Q86TM6)
Assay: expression library screening, plaque protein on nitrocellulose, 32P-labeled GST-partial Synoviolin as probe

Chains of the proteins cited; added tags and fusions are not shown. Lines headed by an entry give the natural chain unless they say otherwise; changes in a name come on top.
UniProt Q86TM6: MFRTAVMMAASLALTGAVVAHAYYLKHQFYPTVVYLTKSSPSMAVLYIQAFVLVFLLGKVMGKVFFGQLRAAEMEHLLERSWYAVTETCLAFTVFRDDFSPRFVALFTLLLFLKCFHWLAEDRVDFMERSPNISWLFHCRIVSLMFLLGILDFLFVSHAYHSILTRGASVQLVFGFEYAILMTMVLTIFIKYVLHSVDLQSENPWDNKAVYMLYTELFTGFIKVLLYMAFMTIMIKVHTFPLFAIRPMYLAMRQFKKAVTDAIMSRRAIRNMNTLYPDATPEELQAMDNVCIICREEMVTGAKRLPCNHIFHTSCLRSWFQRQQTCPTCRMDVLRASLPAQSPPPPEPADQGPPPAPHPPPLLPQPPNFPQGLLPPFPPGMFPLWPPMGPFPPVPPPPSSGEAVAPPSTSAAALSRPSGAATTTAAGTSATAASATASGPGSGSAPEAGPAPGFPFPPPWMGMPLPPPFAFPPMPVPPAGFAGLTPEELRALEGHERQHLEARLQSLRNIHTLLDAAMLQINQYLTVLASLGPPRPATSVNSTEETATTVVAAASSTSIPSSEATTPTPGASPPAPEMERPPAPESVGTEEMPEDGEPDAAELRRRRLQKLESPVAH

binding: binds
B1: Synoviolin ligand (SL), clone expressed from the RA patient synovial cell cDNA expression library (ligand, human, UniProt Q12805 1-493, looked up)
chain: MLKALFLTMLTLALVKSQDTEETITYTQCTDGYEWDPVRQQCKDIDECDIVPDACKGGMKCVNHYGGYLCLPKTAQIIVNNEQPQQETQPAEGTSGATTGVVAASSMATSGVLPGGGFVASAAAVAGPEMQTGRNNFVIRRNPADPQRIPSNPSHRIQCAAGYEQSEHNVCQDIDECTAGTHNCRADQVCINLRGSFACQCPPGYQKRGEQCVDIDECTIPPYCHQRCVNTPGSFYCQCSPGFQLAANNYTCVDINECDASNQCAQQCYNILGSFICQCNQGYELSSDRLNCEDIDECRTSSYLCQYQCVNEPGKFSCMCPQGYQVVRSRTCQDINECETTNECREDEMCWNYHGGFRCYPRNPCQDPYILTPENRCVCPVSNAMCRELPQSIVYKYMSIRSDRSVPSDIFQIQATTIYANTINTFRIKSGNENGEFYLRQTSPVSAMLVLVKSLSGPREHIVDLEMLTVSSIGTFRTSSVLRLTIIVGPFSF

Reference: patent US20040152871A1
